In all, about 400,000 compounds went through this assay and about 5,500 (1.4%) were called active. This list was built around the results that the source calls inconclusive (neither active nor inactive); the mix of calls is not that of the screen. Calls follow the shape of the dose curve; as a rule, active = well fitted cell-killing curve with a large enough effect; inconclusive = small, poorly fitted or top-dose-only effect, or effect the other way; inactive = flat fitted curve, though single readings scatter. A potency beside an inconclusive call is a rough fit, not a confirmed value.
Experiment: qHTS assay for MDR1-selective chemotherapeutics: Primary screen using the parental adenocarcinoma cell KB-3-1; also: nearly all actives have a fitted effect of over 60% in size
Conditions: KB-3-1 viability, CellTiter-Glo ATP luminescence, 72 h; activity change, negative = cytotoxic: at 46.1 µM (top of the series)
Summary of the method: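 KB-3-1 cells, DMEM (no phenol red) + 10% FBS; compound by pin transfer, 72 h, 37 °C. Readout: CellTiter-Glo luminescence after 10 min. Data normalized, curve-fitted.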
With `Cc1ccc(C)c(C(O)c2ncc(-c3ccccc3)[nH]2)c1` (stereo not drawn) the Potency was “inactive”.
For `CN(C)CCNc1ccc(CO)c2sc3ccc(O)cc3c(=O)c12`, the Potency was inconclusive: 13 µM [cytotoxic, partial curve, poor fit].
For `N#Cc1c(Cl)nsc1NC(=O)c1ccccc1`, the Potency was inconclusive: 29.1 µM [cytotoxic, single point].
For `O=S(=O)(c1ccc(Cl)cc1)c1nc(-c2ccco2)oc1SCc1ccc(F)cc1`, the Potency was “inactive”.
With `COc1ccc(CCNS(=O)(=O)c2ccc3c(c2)NC(=O)CCS3)cc1OC` the Potency was inconclusive: 18.4 µM [cytotoxic, partial curve, poor fit].
With `O=C1C=C(NCc2ccc(Cl)c(Cl)c2)CC1` the Potency was inconclusive: 29.1 µM [cytotoxic, single point].
With `Cc1cc(/C=c2/sc3nc4ccccc4n3c2=O)c(C)n1-c1ccccn1` the Potency was inconclusive: 23.1 µM [cytotoxic, single point].
For `CN(NS(=O)(=O)c1ccccc1)C(=O)c1ccccc1`, the Potency was inconclusive: 29.1 µM [rising, single point].
With `COC(=O)/C(C#N)=C1/C=Cc2ccccc2N1C` the Potency was inconclusive: 29.1 µM [cytotoxic, partial curve, poor fit].
In the case of `C=C(C)c1sc(-c2ccccc2)nc1C`, the Potency is reported as inconclusive: 0.0073 µM [rising, full curve].
For `CC12CCC(C(=O)Nc3cccc4ccccc34)(C1Br)C2(C)C` (stereo not drawn), the Potency was inconclusive: 23.1 µM [cytotoxic, single point].
In the case of `CCCCOc1cccc(C(=O)Nc2cccc(-c3nc4ncccc4o3)c2C)c1`, the Potency is reported as inconclusive: 23.1 µM [cytotoxic, single point].
In the case of `O=C(Nc1nc(-c2ccccc2)c(C(=O)c2ccccc2)s1)c1ccc(S(=O)(=O)N2CCCC2)cc1`, the Potency is reported as active: 16.4 µM.
In the case of `COC(=O)c1cnc(Nc2nc(CN)cs2)nc1C(F)(F)F`, the Potency is reported as “inactive”.
For `Cc1ccc(C(=O)O)cc1N=Cc1cc(Br)cc(Br)c1O`, the Potency was “inactive”.
With `Fc1ccccc1COc1ccc(Br)cc1CNCc1cccnc1` the Potency was inconclusive: 32.6 µM [cytotoxic, partial curve, poor fit].
In the case of `Cc1ccc(S(=O)(=O)N2CCCN(c3nc(-c4cccs4)nc4ccccc34)CC2)cc1`, the Potency is reported as “inactive”.
With `CCn1ccc(-c2ccccc2)c(C#N)c1=O` the Potency was inconclusive: 16.4 µM [cytotoxic, single point].
With `COC(=O)c1c(N)n(CCCN2CCOCC2)c2nc3ccccc3nc12` the Potency was “inactive”.
For `Cc1ccc(S(=O)(=O)NC(Cc2ccc(Cl)cc2)C(=O)O)cc1` (stereo not drawn), the Potency was “inactive”.
For `CCc1ccc(/C=N/NC(=O)c2cc(-c3cccc([N+](=O)[O-])c3)n[nH]2)cc1`, the Potency was inconclusive: 29.1 µM [cytotoxic, single point].
For `COc1ccccc1NS(=O)(=O)c1cc(C(=O)NCC(c2cccs2)N2CCOCC2)ccc1C` (stereo not drawn), the Potency was “inactive”.
For `CCOC(=O)c1c(C)n(C)c2ccc(O)c(CN3CCCCC3)c12`, the Potency was inconclusive: 32.6 µM [cytotoxic, single point].
For `Cc1ccccc1N(C(=O)c1snc(C(N)=O)c1N)C(C)C(=O)NC1CCCCC1` (stereo not drawn), the Potency was “inactive”.
With `OCCNc1nc(NCc2ccccc2)c2ccccc2n1` the Potency was inconclusive: 29.1 µM [cytotoxic, single point].
In the case of `O=C(CN1c2ccccc2Sc2ccccc21)NNC(=S)Nc1ccc(Cl)cc1Cl`, the Potency is reported as active: 20.6 µM.
In the case of `O=C(CSc1nnc(-c2ccccc2F)o1)Nc1ccc(N2CCOCC2)cc1`, the Potency is reported as “inactive”.
In the case of `Cc1cc2c(C(C)C)c(O)c(O)c(C=O)c2c(O)c1-c1c(C)cc2c(C(C)C)c(O)c(O)c(C=O)c2c1O`, the Potency is reported as active: 1.46 µM.
In the case of `CCC1(c2ccccc2)NC(=O)N(CC(=O)NCCN2C(=O)S/C(=C\c3cccnc3)C2=O)C1=O` (stereo not drawn), the Potency is reported as “inactive”.
For `CC[C@@H](C)[C@@H](CO)NC(=O)[C@H]1O[C@@H](n2cnc3c(N)ncnc32)[C@H](O)[C@@H]1O`, the Potency was “inactive”.
In the case of `CCOC(=O)[C@]12CCCC=C1N(CCC1=CCCCC1)C(=O)[C@H](CC(=O)NCc1cccc(C(F)(F)F)c1)C2`, the Potency is reported as inconclusive: 23.1 µM [cytotoxic, partial curve, poor fit].
For `O=C(Nc1ccc(Br)cc1)c1cccc2c1C(=O)N(C1CCCCC1)C2`, the activity change, negative = cytotoxic was inconclusive: -11.4%.
In the case of `Oc1ccc2ccccc2c1CN1CCOCC1`, the Potency is reported as “inactive”.
With `Cc1cccc(N2CCN(C(=O)c3cccc(N4CCCC4=O)c3)C(C)C2)c1` (stereo not drawn) the Potency was active: 2.59 µM.
In the case of `CCCCC(=O)NNC(=S)NC(=O)c1ccc([N+](=O)[O-])cc1`, the Potency is reported as inconclusive: 23.1 µM [cytotoxic, single point].
For `COc1ccc(CNC(=O)CN(Cc2ccc(Cl)cc2)S(=O)(=O)c2ccccc2)cc1`, the Potency was inconclusive: 23.1 µM [cytotoxic, partial curve].
In the case of `O=C(Cc1ccc(Cl)cc1Cl)Nc1cccc(S(=O)(=O)Nc2ccccc2F)c1`, the Potency is reported as inconclusive: 8.2 µM [cytotoxic, partial curve].
With `Cc1ccc2nc(-c3ccc(SCC(=O)Nc4nc(C)cs4)nc3)[nH]c2c1` the Potency was inconclusive: 0.13 µM [rising, full curve, poor fit].
In the case of `Cc1ccc(/C=C/C(=O)Nc2cc(S(=O)(=O)N3CCOCC3)ccc2N2CCOCC2)cc1`, the Potency is reported as inconclusive: 13 µM [cytotoxic, single point].
In the case of `CC(C)NC(=O)CN1C(=O)C(C)(C)Oc2ccc(C(=O)NC3CCCCC3)cc21`, the Potency is reported as inconclusive: 6510 µM [cytotoxic, full curve, poor fit].
With `Nc1nc2c(ncn2[C@@H]2O[C@H](CNS(=O)(=O)c3cccnc3)[C@@H](O)[C@H]2O)c(=O)[nH]1` the Potency was “inactive”.
For `Cc1ccc2[nH]c3c(=O)[nH]ncc3c2c1`, the activity change, negative = cytotoxic was inconclusive: -72.3%.
With `CCc1ccc(-n2c(C)cc(/C=N/NC(=O)c3ccncc3)c2C)cc1` the Potency was inconclusive: 29.1 µM [cytotoxic, single point].
For `N#Cc1ccccc1NC(=O)Nc1cccc(Cl)c1`, the Potency was “inactive”.
With `Cc1noc(C)c1COc1ccccc1C(=O)N1CCN(c2cccc(Cl)c2)CC1` the Potency was inconclusive: 18.4 µM [cytotoxic, single point].
For `CC1(C)CC(=O)C2=C(C1)OC(N)=C([N+](=O)[O-])C2c1ccc(F)cc1` (stereo not drawn), the Potency was inconclusive: 16.4 µM [rising, single point].
With `COc1ccc(S(=O)(=O)Nc2cc3c4c(oc3c3ccccc23)CC(C)(C)CC4=O)cc1` the Potency was inconclusive: 18.4 µM [cytotoxic, single point].
In the case of `NC(c1csc(Nc2ccc(C(=O)NCCCO)cn2)n1)c1ccccc1Cl` (stereo not drawn), the Potency is reported as “inactive”.
For `Cc1ccc(-c2ccc(CN3C(CC(C)C)C(=O)N(Cc4cn(CC5CCCCC5)nn4)CCS3(=O)=O)cc2)cc1` (stereo not drawn), the Potency was “inactive”.
With `O=C(c1ccc(O)c(Cl)c1)N1CCN(S(=O)(=O)c2ccccc2)CC1` the Potency was “inactive”.
For `Cc1nn(-c2ccccc2)c2c1N(CC(=O)N1CCN(c3ccc(F)cc3)CC1)C(=O)CS2`, the Potency was “inactive”.
For `CCOc1ccc(C(=O)c2ccc(OCC)c(N)c2)cc1N`, the Potency was inconclusive: 29.1 µM [cytotoxic, single point].
In the case of `CC(C)Cn1c2c(c(O)c(C(=O)Nc3ncccc3O)c1=O)CCCC2`, the Potency is reported as inconclusive: 20.6 µM [cytotoxic, single point].
In the case of `CC1CCCCN1CCNC(=O)CC1Oc2ccccc2NC1=O` (stereo not drawn), the Potency is reported as “inactive”.
In the case of `COc1cc(-c2nnc(-c3cc(OC)c(OC)c(OC)c3)o2)cc(OC)c1OC`, the Potency is reported as inconclusive: 4.11 µM [rising, partial curve].
With `Nn1cnnc1N/N=C/c1ccc(F)cc1` the Potency was “inactive”.
In the case of `O=C(N/N=C/c1cccnc1)c1cccs1`, the Potency is reported as inconclusive: 29.1 µM [rising, single point].
In the case of `CCOc1ccc(NC(=O)CN(C)c2ccc(S(=O)(=O)N(C(C)C)C(C)C)cn2)cc1OCC`, the activity change, negative = cytotoxic is reported as inconclusive: -3.79%.
In the case of `Cc1ccc(/C=C2\CCCC3=C2NC(=S)NC3c2ccc(C)cc2)cc1` (stereo not drawn), the Potency is reported as inconclusive: 16.4 µM [cytotoxic, single point].
With `O=C1NN=C(c2ccc(Br)cc2)CC1c1ccc(Cl)cc1` (stereo not drawn) the Potency was inconclusive: 32.6 µM [cytotoxic, single point].
For `O=S(=O)(NCCNc1ncc(C(F)(F)F)cc1Cl)C(F)(F)F`, the Potency was inconclusive: 29.1 µM [cytotoxic, single point].
In the case of `CC(C)NC(=O)c1[nH]nc2c1CCc1ccccc1-2`, the Potency is reported as “inactive”.
In the case of `CC(C)N1CCC(C)(C(=O)Nc2cccc3c2CCCC3)C1` (stereo not drawn), the Potency is reported as “inactive”.
With `O=C(/C=C/c1c(Cl)cccc1Cl)Nc1ccncc1` the Potency was inconclusive: 29.1 µM [cytotoxic, single point].
For `O=C1/C(=C\c2ccccc2Cl)SC(=S)N1CCC(=O)N1CCCc2ccccc21`, the Potency was active: 23.1 µM.
In the case of `O=C(NCCCN1CCOCC1)c1c(O)c2cc(Br)cc(Br)c2[nH]c1=O`, the Potency is reported as inconclusive: 23.1 µM [cytotoxic, single point].
With `COc1cc(-c2cc(OC)c(O)c(OC)c2)cc(OC)c1O` the Potency was inconclusive: 29.1 µM [cytotoxic, single point].
In the case of `CC(C)c1ccc(-c2nc(C(N)=O)c3c(n2)n(-c2ccc4c(c2)OCO4)c(=O)n3C)cc1`, the Potency is reported as inconclusive: 16.4 µM [cytotoxic, single point].
For `Cc1ccc(Nc2nc(N)nc(CN3CCN(Cc4ccc5c(c4)OCO5)CC3)n2)cc1Cl`, the Potency was active: 20.6 µM.
With `Cc1cc(N2CCOCC2)n2nc(C)c(-c3ccccc3Cl)c2n1` the Potency was “inactive”.
In the case of `Cc1ccc(OCC(=O)Nc2nnc(S(=O)(=O)N3c4ccccc4CC3C)s2)cc1` (stereo not drawn), the Potency is reported as “inactive”.
For `CCOc1cc(C(=O)Nc2ccccc2F)cc(Br)c1OCC`, the Potency was inconclusive: 16.4 µM [rising, partial curve].
For `COc1cccc(NC(=O)Cc2ccc3ccccc3c2)c1`, the Potency was inconclusive: 29.1 µM [cytotoxic, single point].

— PubChem BioAssay AID1347075 (National Center for Advancing Translational Sciences (NCATS), 2019)
% is scaled to controls: 0 for no effect and ±100 for the full control effect; potency is read from the fitted curve at half-maximal effect.
